Reference: PMC11127164
No constants are given. Whether binding was seen depends on the method and setting. Binding seen in cells or lysates may run through a third protein. Some entries that bind do so weakly or less than the wild type.

Amino acid sequences for entries named in this document (tags omitted). Residues count along the entry.
UniProt Q9NZ52, residues 1-316: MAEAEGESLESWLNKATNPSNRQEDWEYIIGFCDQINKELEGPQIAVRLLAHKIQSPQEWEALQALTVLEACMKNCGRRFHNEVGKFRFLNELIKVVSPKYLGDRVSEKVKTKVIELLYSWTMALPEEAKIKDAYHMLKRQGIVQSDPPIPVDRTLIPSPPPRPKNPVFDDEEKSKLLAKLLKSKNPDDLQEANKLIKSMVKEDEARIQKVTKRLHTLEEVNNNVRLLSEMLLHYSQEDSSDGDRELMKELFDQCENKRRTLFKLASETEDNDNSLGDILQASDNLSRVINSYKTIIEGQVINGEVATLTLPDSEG
UniProt P84085: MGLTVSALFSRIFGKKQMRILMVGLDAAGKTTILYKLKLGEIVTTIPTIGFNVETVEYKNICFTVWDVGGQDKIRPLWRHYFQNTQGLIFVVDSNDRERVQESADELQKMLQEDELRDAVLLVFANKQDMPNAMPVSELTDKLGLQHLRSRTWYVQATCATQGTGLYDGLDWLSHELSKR
UniProt P84077: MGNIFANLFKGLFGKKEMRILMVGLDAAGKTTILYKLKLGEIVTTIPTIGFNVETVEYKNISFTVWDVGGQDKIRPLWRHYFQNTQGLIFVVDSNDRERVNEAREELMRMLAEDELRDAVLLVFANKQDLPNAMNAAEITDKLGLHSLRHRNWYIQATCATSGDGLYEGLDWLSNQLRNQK
UniProt P62330: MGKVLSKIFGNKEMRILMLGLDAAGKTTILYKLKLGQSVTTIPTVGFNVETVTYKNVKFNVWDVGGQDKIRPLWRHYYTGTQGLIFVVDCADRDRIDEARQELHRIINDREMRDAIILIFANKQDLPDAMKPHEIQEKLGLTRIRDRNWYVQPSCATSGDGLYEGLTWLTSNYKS
UniProt P18085: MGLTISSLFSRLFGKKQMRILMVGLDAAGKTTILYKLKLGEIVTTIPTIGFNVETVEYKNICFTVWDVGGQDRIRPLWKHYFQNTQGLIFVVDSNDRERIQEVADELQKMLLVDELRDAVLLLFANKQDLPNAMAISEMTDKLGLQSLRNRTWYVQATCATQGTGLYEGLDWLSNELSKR

target: glutathione S-transferase-fused Golgi-localized γ-adaptin ear-containing, ARF-binding protein 3 (1–316) (UniProt Q9NZ52); test: pull-down; GST-GGA3(1–316)-coated Sepharose beads incubated with lysates of GIST-T1 or PC-9 cells at 4 °C for 1 h, washed once, immunoblot for ARFs; cells untreated or treated with 1 μM M-COPA or 1 μM BFA for 4 h (GIST-T1) or 200 nM M-COPA for 8 h (PC-9); only the target purified

binding, binds:
ADP-ribosylation factor 5 (from UniProt P84085 1-180)
ADP-ribosylation factor 1 (from UniProt P84077 1-181)
ADP-ribosylation factor 6 (from UniProt P62330 1-175)
ADP-ribosylation factor 4 (from UniProt P18085 1-180)
